According to the supplement of paper PMC12823440, “Inhibitors supercharge kinase turnover through native proteolytic circuits” (Nature, 2025):
Where a name gives a salt, the structure may show the parent alone. The list shows a part of the results. Hit calls seldom repeat between salt and free forms of one compound.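 Kinases were expressed as nanoluciferase fusions in K562 cells and luminescence was read every 4 h between 2 and 18 h as percent of control, DMSO set to 100% and a positive control to 0%. A time point counts as decreased when the signal drops significantly (2 sigma). The hit call is the authors' own, does not follow from the count of time points alone, and its rule is not shown.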

Chains of the proteins cited; added tags and fusions are not shown. Lines headed by an entry give the natural chain unless they say otherwise; changes in a name come on top.
UniProt P21860, whole entry: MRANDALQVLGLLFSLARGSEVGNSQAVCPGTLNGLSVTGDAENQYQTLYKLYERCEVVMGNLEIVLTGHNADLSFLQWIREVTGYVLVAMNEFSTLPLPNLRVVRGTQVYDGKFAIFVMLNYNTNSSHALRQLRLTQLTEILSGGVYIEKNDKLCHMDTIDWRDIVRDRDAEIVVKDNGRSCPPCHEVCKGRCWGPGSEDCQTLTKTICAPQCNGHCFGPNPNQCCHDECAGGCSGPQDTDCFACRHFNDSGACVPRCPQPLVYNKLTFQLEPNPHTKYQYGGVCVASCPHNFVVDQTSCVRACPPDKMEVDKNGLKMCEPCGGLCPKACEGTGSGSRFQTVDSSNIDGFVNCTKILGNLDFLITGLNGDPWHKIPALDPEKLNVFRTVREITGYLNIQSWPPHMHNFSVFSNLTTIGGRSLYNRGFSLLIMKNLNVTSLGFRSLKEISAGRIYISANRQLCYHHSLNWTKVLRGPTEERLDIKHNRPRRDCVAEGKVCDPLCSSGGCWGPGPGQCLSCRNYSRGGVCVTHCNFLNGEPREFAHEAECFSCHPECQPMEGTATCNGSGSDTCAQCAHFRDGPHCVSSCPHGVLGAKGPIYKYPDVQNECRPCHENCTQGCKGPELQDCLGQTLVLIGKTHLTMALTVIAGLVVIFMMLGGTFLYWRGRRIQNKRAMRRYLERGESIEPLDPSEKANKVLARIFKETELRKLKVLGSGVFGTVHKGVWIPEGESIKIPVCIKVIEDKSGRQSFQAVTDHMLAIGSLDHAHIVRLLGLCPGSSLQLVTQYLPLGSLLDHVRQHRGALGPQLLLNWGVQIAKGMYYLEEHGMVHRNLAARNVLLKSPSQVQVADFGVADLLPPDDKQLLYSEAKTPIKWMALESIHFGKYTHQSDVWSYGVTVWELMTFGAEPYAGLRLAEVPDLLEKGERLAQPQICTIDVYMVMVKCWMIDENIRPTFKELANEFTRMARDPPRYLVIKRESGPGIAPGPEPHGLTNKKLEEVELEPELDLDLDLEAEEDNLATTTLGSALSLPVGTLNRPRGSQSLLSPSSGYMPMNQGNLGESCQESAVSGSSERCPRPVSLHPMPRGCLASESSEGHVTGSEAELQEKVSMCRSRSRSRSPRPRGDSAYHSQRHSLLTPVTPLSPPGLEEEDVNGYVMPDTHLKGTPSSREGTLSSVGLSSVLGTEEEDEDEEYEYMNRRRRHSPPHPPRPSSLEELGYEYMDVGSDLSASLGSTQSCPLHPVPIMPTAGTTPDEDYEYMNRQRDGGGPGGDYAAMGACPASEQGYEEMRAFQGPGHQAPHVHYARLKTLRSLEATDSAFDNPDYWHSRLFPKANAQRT
UniProt Q15303, whole entry R711C: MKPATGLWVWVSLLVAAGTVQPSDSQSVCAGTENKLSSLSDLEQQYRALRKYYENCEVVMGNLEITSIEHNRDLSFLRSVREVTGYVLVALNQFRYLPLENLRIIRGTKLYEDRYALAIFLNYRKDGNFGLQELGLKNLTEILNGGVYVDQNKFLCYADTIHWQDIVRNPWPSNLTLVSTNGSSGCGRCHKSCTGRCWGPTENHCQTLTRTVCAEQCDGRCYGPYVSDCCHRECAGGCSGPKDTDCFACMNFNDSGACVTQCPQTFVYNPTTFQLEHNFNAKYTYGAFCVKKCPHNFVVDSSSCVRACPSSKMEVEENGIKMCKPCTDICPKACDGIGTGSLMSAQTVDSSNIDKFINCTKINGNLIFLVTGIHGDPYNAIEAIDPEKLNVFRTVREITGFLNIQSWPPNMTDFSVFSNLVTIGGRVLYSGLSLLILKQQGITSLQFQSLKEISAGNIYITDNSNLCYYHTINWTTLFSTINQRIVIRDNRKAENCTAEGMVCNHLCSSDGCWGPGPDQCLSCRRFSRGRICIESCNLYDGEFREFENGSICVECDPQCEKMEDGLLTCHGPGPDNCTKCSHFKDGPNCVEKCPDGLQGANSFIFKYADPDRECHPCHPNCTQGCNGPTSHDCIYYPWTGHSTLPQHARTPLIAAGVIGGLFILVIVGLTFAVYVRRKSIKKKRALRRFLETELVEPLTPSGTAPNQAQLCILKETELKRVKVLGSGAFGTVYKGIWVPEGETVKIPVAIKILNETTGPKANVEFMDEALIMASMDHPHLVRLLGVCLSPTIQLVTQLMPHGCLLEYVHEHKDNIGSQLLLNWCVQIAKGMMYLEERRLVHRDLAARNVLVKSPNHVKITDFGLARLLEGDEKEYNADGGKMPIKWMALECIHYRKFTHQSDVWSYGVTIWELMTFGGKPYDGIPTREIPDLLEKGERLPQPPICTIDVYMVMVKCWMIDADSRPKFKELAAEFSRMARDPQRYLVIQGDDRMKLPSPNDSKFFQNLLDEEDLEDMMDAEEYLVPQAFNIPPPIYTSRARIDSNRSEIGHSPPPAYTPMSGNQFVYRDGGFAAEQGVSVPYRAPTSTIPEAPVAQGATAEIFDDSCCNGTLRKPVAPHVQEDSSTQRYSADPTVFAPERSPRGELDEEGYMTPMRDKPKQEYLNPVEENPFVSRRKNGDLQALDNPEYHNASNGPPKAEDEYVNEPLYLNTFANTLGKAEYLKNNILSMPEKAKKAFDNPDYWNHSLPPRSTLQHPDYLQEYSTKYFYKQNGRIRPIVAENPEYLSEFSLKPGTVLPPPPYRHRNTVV
UniProt P21802, whole entry, looked up: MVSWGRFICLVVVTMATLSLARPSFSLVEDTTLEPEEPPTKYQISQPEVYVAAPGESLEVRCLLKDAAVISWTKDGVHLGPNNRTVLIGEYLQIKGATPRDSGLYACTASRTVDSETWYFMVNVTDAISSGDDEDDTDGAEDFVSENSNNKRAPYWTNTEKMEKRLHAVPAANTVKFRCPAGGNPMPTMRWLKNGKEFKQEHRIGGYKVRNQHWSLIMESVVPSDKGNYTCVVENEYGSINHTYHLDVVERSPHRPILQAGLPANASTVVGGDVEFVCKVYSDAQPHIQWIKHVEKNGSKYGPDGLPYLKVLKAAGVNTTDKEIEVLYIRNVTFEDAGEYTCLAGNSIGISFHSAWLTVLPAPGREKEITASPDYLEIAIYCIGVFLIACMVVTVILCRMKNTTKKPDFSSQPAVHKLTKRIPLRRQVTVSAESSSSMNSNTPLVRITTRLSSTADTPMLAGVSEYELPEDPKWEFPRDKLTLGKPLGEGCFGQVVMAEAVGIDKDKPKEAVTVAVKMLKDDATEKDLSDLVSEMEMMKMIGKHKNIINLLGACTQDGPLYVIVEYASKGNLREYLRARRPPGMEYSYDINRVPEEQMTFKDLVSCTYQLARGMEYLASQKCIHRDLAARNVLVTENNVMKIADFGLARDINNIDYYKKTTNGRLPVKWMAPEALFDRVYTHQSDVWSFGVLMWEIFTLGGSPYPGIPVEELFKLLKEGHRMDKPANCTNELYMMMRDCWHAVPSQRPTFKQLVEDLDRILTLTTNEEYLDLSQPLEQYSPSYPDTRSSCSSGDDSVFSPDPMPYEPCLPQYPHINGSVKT
UniProt P22607, whole entry, looked up: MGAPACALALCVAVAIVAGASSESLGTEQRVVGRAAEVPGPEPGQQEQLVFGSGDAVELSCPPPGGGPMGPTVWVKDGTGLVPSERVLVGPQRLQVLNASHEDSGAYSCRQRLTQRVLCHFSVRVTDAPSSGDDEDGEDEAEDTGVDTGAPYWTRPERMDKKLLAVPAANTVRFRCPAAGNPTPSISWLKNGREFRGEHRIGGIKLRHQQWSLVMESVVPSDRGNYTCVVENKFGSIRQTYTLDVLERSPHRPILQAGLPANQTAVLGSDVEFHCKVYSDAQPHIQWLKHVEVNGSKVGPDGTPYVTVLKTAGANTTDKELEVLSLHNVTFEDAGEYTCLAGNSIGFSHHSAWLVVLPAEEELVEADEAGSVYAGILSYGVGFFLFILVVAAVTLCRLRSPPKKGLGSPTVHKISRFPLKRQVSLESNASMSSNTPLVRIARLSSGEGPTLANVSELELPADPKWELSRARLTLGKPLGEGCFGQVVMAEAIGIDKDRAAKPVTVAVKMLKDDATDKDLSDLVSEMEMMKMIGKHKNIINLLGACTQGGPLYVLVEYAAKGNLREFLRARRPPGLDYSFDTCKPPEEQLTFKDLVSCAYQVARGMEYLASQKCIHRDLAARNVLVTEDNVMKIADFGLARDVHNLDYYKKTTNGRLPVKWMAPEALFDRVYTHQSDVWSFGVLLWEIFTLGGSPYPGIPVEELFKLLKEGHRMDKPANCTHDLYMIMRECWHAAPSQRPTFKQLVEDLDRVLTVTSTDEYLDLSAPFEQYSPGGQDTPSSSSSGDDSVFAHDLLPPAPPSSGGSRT
UniProt P06241, whole entry, looked up: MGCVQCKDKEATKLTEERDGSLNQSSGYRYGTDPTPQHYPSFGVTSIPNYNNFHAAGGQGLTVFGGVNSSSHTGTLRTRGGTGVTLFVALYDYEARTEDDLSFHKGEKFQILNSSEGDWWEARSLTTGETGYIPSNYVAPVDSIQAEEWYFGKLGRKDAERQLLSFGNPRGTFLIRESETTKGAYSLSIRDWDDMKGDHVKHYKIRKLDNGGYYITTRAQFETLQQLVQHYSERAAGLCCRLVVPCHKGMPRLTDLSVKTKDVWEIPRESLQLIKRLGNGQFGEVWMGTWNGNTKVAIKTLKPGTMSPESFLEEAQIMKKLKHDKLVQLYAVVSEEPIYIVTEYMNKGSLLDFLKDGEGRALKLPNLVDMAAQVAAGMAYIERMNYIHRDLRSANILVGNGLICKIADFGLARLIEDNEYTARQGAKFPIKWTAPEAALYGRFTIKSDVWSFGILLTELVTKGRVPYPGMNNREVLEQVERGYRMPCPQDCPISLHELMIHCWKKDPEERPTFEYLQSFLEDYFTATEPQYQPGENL
UniProt P49840: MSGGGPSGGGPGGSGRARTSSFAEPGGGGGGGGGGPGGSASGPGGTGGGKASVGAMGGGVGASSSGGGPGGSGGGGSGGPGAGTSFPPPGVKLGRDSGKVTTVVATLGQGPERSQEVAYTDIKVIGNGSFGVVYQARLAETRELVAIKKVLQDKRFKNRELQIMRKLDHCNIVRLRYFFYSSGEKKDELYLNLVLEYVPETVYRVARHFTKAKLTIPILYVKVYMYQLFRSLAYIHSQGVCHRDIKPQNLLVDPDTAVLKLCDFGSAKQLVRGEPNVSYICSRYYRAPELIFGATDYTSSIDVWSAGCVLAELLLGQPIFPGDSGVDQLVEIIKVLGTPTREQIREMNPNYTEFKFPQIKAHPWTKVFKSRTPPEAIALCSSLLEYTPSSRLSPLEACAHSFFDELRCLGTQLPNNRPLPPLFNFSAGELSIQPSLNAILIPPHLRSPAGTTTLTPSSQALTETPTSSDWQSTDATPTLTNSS
UniProt P14616: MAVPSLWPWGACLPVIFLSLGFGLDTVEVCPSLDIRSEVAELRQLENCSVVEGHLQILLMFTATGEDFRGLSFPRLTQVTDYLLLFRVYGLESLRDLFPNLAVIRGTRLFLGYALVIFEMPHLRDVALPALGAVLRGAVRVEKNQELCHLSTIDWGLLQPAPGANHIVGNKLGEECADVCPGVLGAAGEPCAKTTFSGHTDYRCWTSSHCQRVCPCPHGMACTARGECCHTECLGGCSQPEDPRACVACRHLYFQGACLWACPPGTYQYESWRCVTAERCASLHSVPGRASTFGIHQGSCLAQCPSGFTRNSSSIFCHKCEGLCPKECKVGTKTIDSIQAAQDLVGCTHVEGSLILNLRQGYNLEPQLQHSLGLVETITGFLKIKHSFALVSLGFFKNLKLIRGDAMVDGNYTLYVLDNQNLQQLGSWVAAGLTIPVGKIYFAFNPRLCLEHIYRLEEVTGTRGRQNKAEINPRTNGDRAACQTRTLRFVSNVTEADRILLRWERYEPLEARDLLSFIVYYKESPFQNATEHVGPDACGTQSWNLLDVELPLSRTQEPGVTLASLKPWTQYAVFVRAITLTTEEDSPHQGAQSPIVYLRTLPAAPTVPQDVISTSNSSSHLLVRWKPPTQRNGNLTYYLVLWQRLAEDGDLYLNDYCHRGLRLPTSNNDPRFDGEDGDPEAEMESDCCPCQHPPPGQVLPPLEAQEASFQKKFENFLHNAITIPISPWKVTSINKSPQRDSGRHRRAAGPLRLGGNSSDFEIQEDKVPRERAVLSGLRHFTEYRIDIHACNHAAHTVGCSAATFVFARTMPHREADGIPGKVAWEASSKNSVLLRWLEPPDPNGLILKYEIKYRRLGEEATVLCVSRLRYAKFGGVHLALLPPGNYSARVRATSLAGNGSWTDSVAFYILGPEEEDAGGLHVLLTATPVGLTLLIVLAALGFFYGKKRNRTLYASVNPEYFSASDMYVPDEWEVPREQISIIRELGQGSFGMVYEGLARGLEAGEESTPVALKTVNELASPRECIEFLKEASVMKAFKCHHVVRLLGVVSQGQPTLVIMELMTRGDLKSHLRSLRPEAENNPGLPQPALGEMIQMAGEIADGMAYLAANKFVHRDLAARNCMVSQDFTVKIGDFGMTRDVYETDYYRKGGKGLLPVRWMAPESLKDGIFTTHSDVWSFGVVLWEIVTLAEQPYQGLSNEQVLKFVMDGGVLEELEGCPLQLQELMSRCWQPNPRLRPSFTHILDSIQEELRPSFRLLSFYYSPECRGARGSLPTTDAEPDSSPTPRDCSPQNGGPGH

What was measured:
Assay in all cases: kinase-Nluc reporter destabilization hit call (1 = scored as downregulated) (binary); higher = compound decreases kinase abundance
Conditions in all cases: K562; 2-18 h
EGFR = EGFR (UniProt P00533)
EGFR_G719S = EGFR_G719S (UniProt P00533)
EGFR_G719S_T790M = EGFR_G719S_T790M (UniProt P00533)
EGFR_L718V = EGFR_L718V (UniProt P00533)
EGFR_L858R = EGFR_L858R (UniProt P00533)
EGFR_L861Q = EGFR_L861Q (UniProt P00533)
EGFR_T790M = EGFR_T790M (UniProt P00533)
EPHA2 = EPHA2 (UniProt P29317)
ERBB3 = ERBB3 (UniProt P21860)
[1] = molecular target: ERBB4_R711C (clone: ERBB4_mut) (UniProt Q15303)
ERN1 = ERN1 (UniProt O75460)
FGFR1 = FGFR1 (UniProt P11362)
FGFR2 = FGFR2 (UniProt P21802)
FGFR3 = FGFR3 (UniProt P22607)
FGR = FGR (UniProt P09769)
FLT3 = FLT3 (UniProt P36888)
FYN = FYN (UniProt P06241)
GSK3A = GSK3A (UniProt P49840)
HER2 = HER2 (UniProt P04626)
INSRR = INSRR (UniProt P14616)

Measured: kinase-Nluc reporter destabilization hit call

CS[C@@]1(C(=O)Nc2ccc3[nH]nc(-c4ccc(OC(C)C)nc4)c3c2)CCN(CC(=O)N2CC=C(c3ccc(-c4ncn(C)n4)cc3)CC2)C1 (2.5 µM)
inactive: EGFR 0 | EGFR_G719S 0 | EGFR_G719S_T790M 0 | EGFR_L718V 0 | EGFR_L858R 0 | EGFR_L861Q 0 | EGFR_T790M 0 | EPHA2 = 0 | ERBB3 = 0 | [1] 0 | ERN1 = 0 | FGFR1 = 0 | FGFR2 = 0 | FGFR3 = 0 | FGR 0 | FLT3 = 0 | FYN 0 | GSK3A 0 | HER2 = 0 | INSRR 0

O=c1c(O)c(-c2ccc(O)c(O)c2)oc2cc(O)c(O)c(O)c12 [Quercetagetin] (10 µM)
inactive: EGFR 0 | EGFR_G719S 0 | EGFR_G719S_T790M 0 | EGFR_L718V 0 | EGFR_L858R 0 | EGFR_L861Q 0 | EGFR_T790M 0 | EPHA2 = 0 | ERBB3 = 0 | [1] 0 | ERN1 = 0 | FGFR1 = 0 | FGFR2 = 0 | FGFR3 = 0 | FGR 0 | FLT3 = 0 | FYN 0 | GSK3A 0 | HER2 = 0 | INSRR 0

CCCCNc1ncc(C(=O)NCc2ccc(-n3ccnc3)cc2)c(NC2CCC(O)CC2)n1 (configuration not stated) (10 µM)
inactive: EGFR 0 | EGFR_G719S 0 | EGFR_G719S_T790M 0 | EGFR_L718V 0 | EGFR_L858R 0 | EGFR_L861Q 0 | EGFR_T790M 0 | EPHA2 = 0 | ERBB3 = 0 | [1] 0 | ERN1 = 0 | FGFR1 = 0 | FGFR2 = 0 | FGFR3 = 0 | FGR 0 | FYN 0 | GSK3A 0 | HER2 = 0 | INSRR 0

COc1ccc(Br)c(C=O)c1O [6-Bromo-2-hydroxy-3-methoxybenzaldehyde] (10 µM)
inactive: EGFR 0 | EGFR_G719S 0 | EGFR_G719S_T790M 0 | EGFR_L718V 0 | EGFR_L858R 0 | EGFR_L861Q 0 | EGFR_T790M 0 | EPHA2 = 0 | ERBB3 = 0 | [1] 0 | ERN1 = 0 | FGFR1 = 0 | FGFR2 = 0 | FGFR3 = 0 | FGR 0 | FLT3 = 0 | GSK3A 0 | HER2 = 0 | INSRR 0

CNc1cc2c(Nc3cccc(Br)c3)ncnc2cn1 (10 µM)
inactive: EGFR 0 | EGFR_G719S 0 | EGFR_G719S_T790M 0 | EGFR_L718V 0 | EGFR_L858R 0 | EGFR_L861Q 0 | EGFR_T790M 0 | EPHA2 = 0 | ERBB3 = 0 | [1] 0 | ERN1 = 0 | FGFR1 = 0 | FGFR2 = 0 | FGFR3 = 0 | FGR 0 | FLT3 = 0 | FYN 0 | GSK3A 0 | HER2 = 0 | INSRR 0

Nc1ccc(O)c(C(=O)O)c1 [5-Aminosalicylic Acid] (10 µM)
inactive: EGFR 0 | EGFR_G719S 0 | EGFR_G719S_T790M 0 | EGFR_L718V 0 | EGFR_L858R 0 | EGFR_L861Q 0 | EGFR_T790M 0 | EPHA2 = 0 | ERBB3 = 0 | [1] 0 | ERN1 = 0 | FGFR1 = 0 | FGFR2 = 0 | FGFR3 = 0 | FGR 0 | FLT3 = 0 | FYN 0 | GSK3A 0 | HER2 = 0 | INSRR 0

S=C(NCc1ccc2c(c1)OCO2)N1CCN(c2ncnc3c2oc2ccccc23)CC1 [Amuvatinib] (2.5 µM)
inactive: EGFR 0 | EGFR_G719S 0 | EGFR_G719S_T790M 0 | EGFR_L718V 0 | EGFR_L858R 0 | EGFR_L861Q 0 | EGFR_T790M 0 | EPHA2 = 0 | ERBB3 = 0 | [1] 0 | ERN1 = 0 | FGFR1 = 0 | FGFR2 = 0 | FGFR3 = 0 | FGR 0 | FLT3 = 0 | FYN 0 | GSK3A 0 | HER2 = 0 | INSRR 0

O=C1OC(COc2ccccc2[N+](=O)[O-])CC1Cc1ccccc1 (configuration not stated) (10 µM)
inactive: EGFR 0 | EGFR_G719S 0 | EGFR_G719S_T790M 0 | EGFR_L718V 0 | EGFR_L858R 0 | EGFR_L861Q 0 | EGFR_T790M 0 | EPHA2 = 0 | ERBB3 = 0 | [1] 0 | ERN1 = 0 | FGFR1 = 0 | FGFR2 = 0 | FGFR3 = 0 | FGR 0 | FLT3 = 0 | FYN 0 | GSK3A 0 | HER2 = 0 | INSRR 0

CC(=O)O/N=C1/C(c2c(O)[nH]c3cc(Br)ccc23)=Nc2ccccc21 [BIO-acetoxime] (10 µM)
inactive: EGFR 0 | EGFR_G719S 0 | EGFR_G719S_T790M 0 | EGFR_L718V 0 | EGFR_L858R 0 | EGFR_L861Q 0 | EGFR_T790M 0 | EPHA2 = 0 | ERBB3 = 0 | [1] 0 | ERN1 = 0 | FGFR1 = 0 | FGFR2 = 0 | FGFR3 = 0 | FGR 0 | FLT3 = 0 | FYN 0 | GSK3A 0 | HER2 = 0 | INSRR 0

O=[N+]([O-])c1ccc(-c2nc(-c3ccc(F)cc3)c(-c3ccncc3)[nH]2)cc1 (10 µM)
inactive: EGFR 0 | EGFR_G719S 0 | EGFR_G719S_T790M 0 | EGFR_L718V 0 | EGFR_L858R 0 | EGFR_L861Q 0 | EGFR_T790M 0 | EPHA2 = 0 | ERBB3 = 0 | [1] 0 | ERN1 = 0 | FGFR1 = 0 | FGFR2 = 0 | FGFR3 = 0 | FGR 0 | FLT3 = 0 | FYN 0 | GSK3A 0 | HER2 = 0 | INSRR 0

COc1cccc(-c2cc(=O)c3ccccc3o2)c1N (10 µM)
inactive: EGFR 0 | EGFR_G719S 0 | EGFR_G719S_T790M 0 | EGFR_L718V 0 | EGFR_L858R 0 | EGFR_L861Q 0 | EGFR_T790M 0 | EPHA2 = 0 | ERBB3 = 0 | [1] 0 | ERN1 = 0 | FGFR1 = 0 | FGFR2 = 0 | FGFR3 = 0 | FGR 0 | FLT3 = 0 | FYN 0 | GSK3A 0 | HER2 = 0 | INSRR 0

CO[C@]1(C(=O)N[C@@H](C)c2ccc(-n3cc(F)cn3)nc2)CC[C@H](c2nc(C)cc(Nc3cc(C)[nH]n3)n2)CC1 [Pralsetinib] (10 µM)
inactive: EGFR 0 | EGFR_G719S 0 | EGFR_G719S_T790M 0 | EGFR_L718V 0 | EGFR_L858R 0 | EGFR_L861Q 0 | EGFR_T790M 0 | EPHA2 = 0 | ERBB3 = 0 | [1] 0 | ERN1 = 0 | FGFR1 = 0 | FGFR2 = 0 | FGFR3 = 0 | FGR 0 | FLT3 = 0 | FYN 0 | GSK3A 0 | HER2 = 0 | INSRR 0

Cc1cc2c(F)c(Oc3ncnn4cc(OC[C@@H](C)OC(=O)[C@H](C)N)c(C)c34)ccc2[nH]1 [Brivanib (alaninate)] (10 µM)
inactive: EGFR 0 | EGFR_G719S 0 | EGFR_G719S_T790M 0 | EGFR_L718V 0 | EGFR_L858R 0 | EGFR_L861Q 0 | EGFR_T790M 0 | EPHA2 = 0 | ERBB3 = 0 | [1] 0 | ERN1 = 0 | FGFR1 = 0 | FGFR2 = 0 | FGFR3 = 0 | FGR 0 | FLT3 = 0 | FYN 0 | GSK3A 0 | HER2 = 0 | INSRR 0

CC1=CC(=O)C(C(C)C)=C/C1=N/OC(=O)c1ccccc1C [Poloxin] (2.5 µM)
inactive: EGFR 0 | EGFR_G719S 0 | EGFR_G719S_T790M 0 | EGFR_L718V 0 | EGFR_L858R 0 | EGFR_L861Q 0 | EGFR_T790M 0 | EPHA2 = 0 | ERBB3 = 0 | [1] 0 | ERN1 = 0 | FGFR1 = 0 | FGFR2 = 0 | FGFR3 = 0 | FGR 0 | FLT3 = 0 | FYN 0 | GSK3A 0 | HER2 = 0 | INSRR 0

CC(C)(C)S(=O)(=O)c1cc2c(Nc3ccc4scnc4c3)ncnc2cc1OCCOP(=O)(O)O (2 µM)
inactive: EGFR 0 | EGFR_G719S 0 | EGFR_G719S_T790M 0 | EGFR_L718V 0 | EGFR_L858R 0 | EGFR_L861Q 0 | EGFR_T790M 0 | EPHA2 = 0 | ERBB3 = 0 | [1] 0 | ERN1 = 0 | FGFR1 = 0 | FGFR2 = 0 | FGFR3 = 0 | FGR 0 | FLT3 = 0 | FYN 0 | GSK3A 0 | HER2 = 0 | INSRR 0

Cc1cncc2cccc(S(=O)(=O)N3CCCNC[C@@H]3C)c12 [H-1152 (dihydrochloride)] (10 µM)
inactive: EGFR 0 | EGFR_G719S 0 | EGFR_G719S_T790M 0 | EGFR_L718V 0 | EGFR_L858R 0 | EGFR_L861Q 0 | EGFR_T790M 0 | EPHA2 = 0 | ERBB3 = 0 | [1] 0 | ERN1 = 0 | FGFR1 = 0 | FGFR2 = 0 | FGFR3 = 0 | FGR 0 | FLT3 = 0 | FYN 0 | GSK3A 0 | HER2 = 0 | INSRR 0

CN1CCC(Nc2nc(Nc3ccc(Oc4ccccc4)cc3)c3c(=O)[nH]cc(Br)c3n2)CC1 (2.5 µM)
inactive: EGFR 0 | EGFR_G719S 0 | EGFR_G719S_T790M 0 | EGFR_L718V 0 | EGFR_L858R 0 | EGFR_L861Q 0 | EGFR_T790M 0 | EPHA2 = 0 | ERBB3 = 0 | [1] 0 | ERN1 = 0 | FGFR1 = 0 | FGFR2 = 0 | FGFR3 = 0 | FGR 0 | FYN 0 | GSK3A 0 | HER2 = 0 | INSRR 0

In the list so far, these have a carbonyl joined to an NH by a bond outside any ring:
CS[C@@]1(C(=O)Nc2ccc3[nH]nc(-c4ccc(OC(C)C)nc4)c3c2)CCN(CC(=O)N2CC=C(c3ccc(-c4ncn(C)n4)cc3)CC2)C1 (2.5 µM)
inactive: EGFR 0 | EGFR_G719S 0 | EGFR_G719S_T790M 0 | EGFR_L718V 0 | EGFR_L858R 0 | EGFR_L861Q 0 | EGFR_T790M 0 | EPHA2 = 0 | ERBB3 = 0 | [1] 0 | ERN1 = 0 | FGFR1 = 0 | FGFR2 = 0 | FGFR3 = 0 | FGR 0 | FLT3 = 0 | FYN 0 | GSK3A 0 | HER2 = 0 | INSRR 0

CCCCNc1ncc(C(=O)NCc2ccc(-n3ccnc3)cc2)c(NC2CCC(O)CC2)n1 (configuration not stated) (10 µM)
inactive: EGFR 0 | EGFR_G719S 0 | EGFR_G719S_T790M 0 | EGFR_L718V 0 | EGFR_L858R 0 | EGFR_L861Q 0 | EGFR_T790M 0 | EPHA2 = 0 | ERBB3 = 0 | [1] 0 | ERN1 = 0 | FGFR1 = 0 | FGFR2 = 0 | FGFR3 = 0 | FGR 0 | FYN 0 | GSK3A 0 | HER2 = 0 | INSRR 0

CO[C@]1(C(=O)N[C@@H](C)c2ccc(-n3cc(F)cn3)nc2)CC[C@H](c2nc(C)cc(Nc3cc(C)[nH]n3)n2)CC1 [Pralsetinib] (10 µM)
inactive: EGFR 0 | EGFR_G719S 0 | EGFR_G719S_T790M 0 | EGFR_L718V 0 | EGFR_L858R 0 | EGFR_L861Q 0 | EGFR_T790M 0 | EPHA2 = 0 | ERBB3 = 0 | [1] 0 | ERN1 = 0 | FGFR1 = 0 | FGFR2 = 0 | FGFR3 = 0 | FGR 0 | FLT3 = 0 | FYN 0 | GSK3A 0 | HER2 = 0 | INSRR 0
